The list shows only some results of the screen, not a fair sample: it gathers tests that were run many times, whatever their T/C, doses with no T/C, and many T/C values between a quarter and a half above the control. Further doses and runs are listed elsewhere. T/C: endpoint of the treated group in % of that of the vehicle group. Some entries give survivors of the animals treated and no T/C: the source holds a T/C of zero for them, seemingly a mark for toxic or unscored doses. Some doses without a T/C left all or most animals alive at the check, yet need not have been tolerated: survival well below the control is almost never listed, so the zero probably covers shortened survival too. Survivors were counted at the toxicity check, usually on the fifth day, unless a day is given; later deaths do not show. Schedules are NCI's codes, read here as Q, the interval in days (D) or hours (H), X, the number of doses. Additions like (4×) give the number of equal values in this list. Some entries were tested several times; their values stand side by side, smallest first. Where survival is the endpoint, this PubChem deposit counts one and a half times the control or more as active, and values a quarter to a half above the control carry no call in these data; other NCI protocols may use other cut-offs.
Tested on: BDF1 mice, B16 melanoma ip, median survival T/C
Assay: NCI In Vivo Anticancer Drug Screen. Data for tumor model B16 Melanoma (intraperitoneal) in B6D2F1 (BDF1) mice
Conditions: T/C endpoint: median survival time, higher T/C = longer survival
How it was run: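 Antitumor activity is assessed in mice bearing a transplanted tumor, with survival or tumor size compared against vehicle-dosed controls and expressed as T/C.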

[1] = dose: 200.0 mg/kg/injection, schedule: Q01DX009 (ip), vehicle: Klucel (hydroxypropylcellulose) (HPC)
[2] = dose: 25.0 mg/kg/injection, schedule: Q01DX009 (ip), vehicle: Klucel (hydroxypropylcellulose) (HPC)
[3] = dose: 50.0 mg/kg/injection, schedule: Q01DX009 (ip), vehicle: Klucel (hydroxypropylcellulose) (HPC)
[4] = dose: 25.0 mg/kg/injection, schedule: Q01DX009 (ip), vehicle: saline with Tween-80

C/C=C1\C[C@@H]2C(OC)Nc3cc(O)c(OC)cc3C(=O)N2C1 (stereo partly drawn)
survivor count (dose: 1.0 mg/kg/injection, schedule: Q01DX009 (ip), vehicle: saline): 10 of 10 | survivor count (dose: 1.0 mg/kg/injection, schedule: Q01DX009 (ip), vehicle: suspension in saline): 2 of 10

CCCC(=O)OCC1OC(n2cnc3c(=S)nc(N)[nH]c32)C(OC(=O)CCC)C1OC(=O)CCC (stereo not drawn)
T/C (dose: 3.12 mg/kg/injection, schedule: Q01DX009 (ip), vehicle: Klucel (hydroxypropylcellulose) (HPC)): 134 % of control

O=C1c2ccccc2C(=O)c2c3c(cc(NCCNCCO)c21)N(CCO)CCN3
T/C (dose: 25.0 mg/kg/injection, schedule: Q01DX009 (ip), vehicle: DMSO): 126 % of control | T/C (dose: 50.0 mg/kg/injection, schedule: Q01DX009 (ip), vehicle: DMSO): 144 % of control | survivor count (dose: 400.0 mg/kg/injection, schedule: Q01DX009 (ip), vehicle: DMSO): 8 of 10

O=C(O)C1CC(c2ccccc2)=NN1c1ccccc1 (stereo not drawn)
T/C (dose: 50.0 mg/kg/injection, schedule: Q01DX009 (ip), vehicle: water): 126 % of control | survivor count (dose: 400.0 mg/kg/injection, schedule: Q01DX009 (ip), vehicle: water): 3 of 10

O=c1[nH]c(=O)n([C@H]2CCCO2)cc1F
survivor count (dose: 6.25 mg/kg/injection, schedule: Q01DX009 (ip), vehicle: saline): 9 of 10 | survivor count [1]: 10 of 10 | survivor count (dose: 200.0 mg/kg/injection, schedule: Q01DX009 (ip), vehicle: saline): 10 of 10 (2×) | survivor count (dose: 400.0 mg/kg/injection, schedule: Q01DX009 (ip), vehicle: Klucel (hydroxypropylcellulose) (HPC)): 10 of 10 | survivor count (dose: 400.0 mg/kg/injection, schedule: Q01DX009 (ip), vehicle: saline): 10 of 10 (2×)

Cc1c(CCl)c(C)c(CCl)c(C)c1CCl
survivor count [2]: 9 of 9 | survivor count [3]: 10 of 10 | survivor count (dose: 100.0 mg/kg/injection, schedule: Q01DX009 (ip), vehicle: Klucel (hydroxypropylcellulose) (HPC)): 3 of 10

CNCCC=C1c2ccccc2CCc2ccccc21
survivor count (dose: 50.0 mg/kg/injection, schedule: Q01DX009 (ip), vehicle: saline): 7 of 10 | survivor count (dose: 100.0 mg/kg/injection, schedule: Q01DX009 (ip), vehicle: saline): 0 of 10

O=C(O)c1cccnc1
survivor count [1]: 9 of 10

C/C(=C\c1ccccc1Cl)[N+](=O)[O-]
survivor count (dose: 150.0 mg/kg/injection, schedule: Q01DX009 (ip), vehicle: Klucel (hydroxypropylcellulose) (HPC)): 7 of 10

Cl/C=C(\Cl)CCl
survivor count [4]: 9 of 10 and 10 of 10 | survivor count (dose: 50.0 mg/kg/injection, schedule: Q01DX009 (ip), vehicle: saline with Tween-80): 2 of 10 | survivor count (dose: 100.0 mg/kg/injection, schedule: Q01DX009 (ip), vehicle: saline with Tween-80): 0 of 10

O=C(O)COc1ccc(OCC(=O)O)cc1
survivor count (dose: 0.37 mg/kg/injection, schedule: Q01DX009 (ip), vehicle: Klucel (hydroxypropylcellulose) (HPC)): 10 of 10 | survivor count (dose: 3.0 mg/kg/injection, schedule: Q01DX009 (ip), vehicle: Klucel (hydroxypropylcellulose) (HPC)): 10 of 10 | survivor count (dose: 6.0 mg/kg/injection, schedule: Q01DX009 (ip), vehicle: Klucel (hydroxypropylcellulose) (HPC)): 9 of 9 | survivor count (dose: 12.0 mg/kg/injection, schedule: Q01DX009 (ip), vehicle: Klucel (hydroxypropylcellulose) (HPC)): 10 of 10

CCN(CC)CCCC(C)Nc1cc(/C=C/c2ccc(Cl)cc2)nc2cc(N(C)C)ccc12 (stereo not drawn)
survivor count [2]: 2 of 10 | survivor count [3]: 0 of 10

Cc1c2ccncc2c(C)c2c1[nH]c1ccccc12
T/C (dose: 8.0 mg/kg/injection, schedule: Q01DX005 (ip), vehicle: saline with Tween-80): 148 % of control | T/C (dose: 10.0 mg/kg/injection, schedule: Q01DX009 (ip), vehicle: saline): 136 and 147 % of control | T/C (dose: 10.0 mg/kg/injection, schedule: Q01DX009 (ip), vehicle: water): 128 and 130 % of control | T/C (dose: 12.5 mg/kg/injection, schedule: Q04DX003 (ip), vehicle: Klucel (hydroxypropylcellulose) (HPC)): 139 % of control | T/C (dose: 20.0 mg/kg/injection, schedule: Q01DX009 (ip), vehicle: saline): 140 % of control | survivor count (dose: 20.0 mg/kg/injection, schedule: Q01DX009 (ip), vehicle: water): 8 of 10 and 10 of 10 | T/C (dose: 25.0 mg/kg/injection, schedule: Q04DX003 (ip), vehicle: Klucel (hydroxypropylcellulose) (HPC)): 133 % of control | T/C (dose: 25.0 mg/kg/injection, schedule: Q04DX003 (ip), vehicle: distilled water + Tween-80): 139 % of control | survivor count (dose: 32.0 mg/kg/injection, schedule: Q01DX005 (iv), vehicle: saline with Tween-80): 0 of 10 | T/C (dose: 40.0 mg/kg/injection, schedule: Q01DX009 (ip), vehicle: saline): 147 % of control | survivor count (dose: 40.0 mg/kg/injection, schedule: Q01DX009 (ip), vehicle: water): 8 of 10 and 10 of 10 | T/C (dose: 50.0 mg/kg/injection, schedule: Q04DX003 (ip), vehicle: distilled water + Tween-80, evaluated on day 45): 132 % of control | T/C (dose: 50.0 mg/kg/injection, schedule: Q04DX003 (ip), vehicle: distilled water + Tween-80, evaluated on day 60): 143 % of control | survivor count (dose: 64.0 mg/kg/injection, schedule: Q01DX005 (ip), vehicle: saline with Tween-80): 9 of 10 | survivor count (dose: 64.0 mg/kg/injection, schedule: Q01DX005 (iv), vehicle: saline with Tween-80): 0 of 10 | survivor count (dose: 80.0 mg/kg/injection, schedule: Q01DX009 (ip), vehicle: saline): 6 of 6 | survivor count (dose: 80.0 mg/kg/injection, schedule: Q01DX009 (ip), vehicle: water): 6 of 10 | survivor count (dose: 100.0 mg/kg/injection, schedule: Q04DX003 (ip), vehicle: Klucel (hydroxypropylcellulose) (HPC)): 10 of 10 | T/C (dose: 100.0 mg/kg/injection, schedule: Q04DX003 (ip), vehicle: distilled water + Tween-80): 142 % of control | survivor count (dose: 128.0 mg/kg/injection, schedule: Q01DX005 (ip), vehicle: saline with Tween-80): 10 of 10 | survivor count (dose: 128.0 mg/kg/injection, schedule: Q01DX005 (iv), vehicle: saline with Tween-80): 0 of 10 | survivor count (dose: 128.0 mg/kg/injection, schedule: Q01DX005 (oral), vehicle: saline with Tween-80): 10 of 10 | survivor count (dose: 200.0 mg/kg/injection, schedule: Q04DX003 (ip), vehicle: Klucel (hydroxypropylcellulose) (HPC)): 10 of 10 | survivor count (dose: 200.0 mg/kg/injection, schedule: Q04DX003 (ip), vehicle: distilled water + Tween-80): 10 of 10 (2×) | survivor count (dose: 256.0 mg/kg/injection, schedule: Q01DX005 (oral), vehicle: saline with Tween-80): 10 of 10

C[N+](C)(CCO)Cc1ccccc1
survivor count [4]: 10 of 10

CCCCCCCCCCCCCCCCCCNC(=O)Nc1ccc(C)cc1
survivor count (dose: 85.0 mg/kg/injection, schedule: Q01DX009 (ip), vehicle: saline with Tween-80): 10 of 10 | survivor count (dose: 170.0 mg/kg/injection, schedule: Q01DX009 (ip), vehicle: saline with Tween-80): 9 of 10 | survivor count (dose: 340.0 mg/kg/injection, schedule: Q01DX009 (ip), vehicle: saline with Tween-80): 10 of 10

CC(=O)N1CCC2(CC1)SSC1(CCN(C(C)=O)CC1)S2
survivor count (dose: 20.0 mg/kg/injection, schedule: Q01DX009 (ip), vehicle: saline with Tween-80): 9 of 10

[Cl][Hg][c]1ccc2ccccc2c1
survivor count (dose: 25.0 mg/kg/injection, schedule: Q01DX009 (ip), vehicle: gum acacia): 7 of 10 | survivor count (dose: 50.0 mg/kg/injection, schedule: Q01DX009 (ip), vehicle: gum acacia): 0 of 10

Nc1ccc(S(=O)(=O)c2ccc(N)cc2)cc1
survivor count (dose: 200.0 mg/kg/injection, schedule: Q01DX009 (ip), vehicle: saline with Tween-80): 5 of 10 | survivor count (dose: 400.0 mg/kg/injection, schedule: Q01DX009 (ip), vehicle: saline with Tween-80): 2 of 10
